# Source: PubChem BioAssay AID588590 (National Center for Advancing Translational Sciences (NCATS), 2011)
# The chains behind the UniProt entries cited, without tags or fusion partners. Where a name states a change or a piece, a line headed by the entry shows the natural chain unless it says otherwise.
# UniProt Q9UNA4: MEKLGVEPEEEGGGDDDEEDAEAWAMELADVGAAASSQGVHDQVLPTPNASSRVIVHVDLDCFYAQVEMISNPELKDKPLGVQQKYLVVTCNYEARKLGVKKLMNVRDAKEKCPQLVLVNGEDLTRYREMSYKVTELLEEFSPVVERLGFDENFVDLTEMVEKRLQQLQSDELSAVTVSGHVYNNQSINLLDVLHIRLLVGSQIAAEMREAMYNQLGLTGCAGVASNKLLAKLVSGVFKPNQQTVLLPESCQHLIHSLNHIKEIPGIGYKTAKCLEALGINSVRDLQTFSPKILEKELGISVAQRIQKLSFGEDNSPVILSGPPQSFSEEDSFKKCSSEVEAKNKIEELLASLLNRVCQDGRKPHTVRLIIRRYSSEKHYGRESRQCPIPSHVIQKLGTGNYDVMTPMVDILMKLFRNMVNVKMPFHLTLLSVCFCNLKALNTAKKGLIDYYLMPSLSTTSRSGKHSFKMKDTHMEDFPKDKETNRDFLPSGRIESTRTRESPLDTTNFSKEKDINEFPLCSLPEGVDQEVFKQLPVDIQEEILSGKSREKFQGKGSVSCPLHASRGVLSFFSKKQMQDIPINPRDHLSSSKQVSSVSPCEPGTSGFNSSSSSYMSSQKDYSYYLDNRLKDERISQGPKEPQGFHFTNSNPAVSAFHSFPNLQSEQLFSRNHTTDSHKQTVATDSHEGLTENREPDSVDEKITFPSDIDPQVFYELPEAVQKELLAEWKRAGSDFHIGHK
# Out of some 390,000 compounds screened, about 4,000 (1%) were called active. The inconclusive results got no clear call from the source; some entries with a clear call stand among them for comparison. Calls come from the whole dose curve; as a rule, active = well fitted inhibition curve with a large enough effect; inconclusive = small, poorly fitted or top-dose-only effect, or another doubt; inactive = no such curve, though single readings can be large or run the other way. A potency beside an inconclusive call is a rough fit, not a confirmed value.
# Biological target: DNA polymerase iota (Homo sapiens) (UniProt Q9UNA4)
# Experiment: qHTS for Inhibitors of Polymerase Iota
# Conditions: Pol iota fluorescent replication assay, 10 min; series mostly up to 115 µM; activity, negative = inhibition: at the top concentration
# Summary of the method: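 Fluorescent replication assay read twice, at 0 min and 10 min after adding 50 nM (final) substrate. Enzyme (10 nM) and compounds were first incubated 15 min at room temperature; enzyme-free buffer wells were negative controls.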
# Potency is the fitted concentration of half-maximal effect.
Compound,Potency,"activity, negative = inhibition"
C=CCn1c(O)c(/C=C/C=Nc2ccccc2)c(=O)[nH]c1=O,"inconclusive: 89.1 µM [inhibitor, partial curve, poor fit]",
CCOc1ccc2c(c1)c(C(C)=O)c(C)n2Cc1ccco1,"inconclusive: 39.8 µM [inhibitor, single point]",
CCCCCCCCCCCCCC(=O)O[C@@H]1[C@@H](C)[C@@]2(O)[C@@H](C=C(CO)C[C@@]3(O)C(=O)C(C)=C[C@@H]23)C2C(C)(C)[C@@]21OC(C)=O (stereo partly drawn),"inconclusive: 50.1 µM [inhibitor, partial curve, poor fit]",
CC(=O)OC(CC(=O)O)C[N+](C)(C)C (stereo not drawn),"inconclusive: 89.1 µM [inhibitor, partial curve, poor fit]",
Cc1ccc(Cn2cccc(C(=O)Nc3nc4ccc(C)cc4s3)c2=O)cc1,"inconclusive: 10 µM [inhibitor, partial curve, poor fit]",
CC(C)c1c(CN(C)C(C)Cc2ccccc2)n(C)n(-c2ccccc2)c1=O (stereo not drawn),"inconclusive: 35.5 µM [inhibitor, single point]",
O=C1NC(=O)C2(Cc3ccccc3N3CCCC32)C(=O)N1c1ccc(Cl)cc1 (stereo not drawn),"inconclusive: 28.2 µM [inhibitor, single point]",
COc1cc2c(ccc3c4cc(OC)c(OC)cc4c[n+](C)c23)cc1O,"inconclusive: 50.1 µM [inhibitor, partial curve, poor fit]",
CC1(C)CC(=O)C2=C(C1)OC(N)=C([N+](=O)[O-])C2c1ccc(C#N)s1 (stereo not drawn),"inconclusive: 22.4 µM [inhibitor, partial curve, poor fit]",
COc1ccc(-c2cc(=NCC(=O)O)c3ccccc3o2)cc1,"inconclusive: 44.7 µM [inhibitor, partial curve]",
COC(=O)C1=C(c2ccc(OCc3ccccc3)cc2)C[C@@H]2CC[C@H]1N2C(=O)NC1CCN(Cc2ccccc2)CC1,"inconclusive: 39.8 µM [inhibitor, single point]",
CN1C(=O)C(=Cc2c(OCc3cnc(Cl)s3)ccc3ccccc23)C(=O)N(C)C1=O,"inconclusive: 28.2 µM [inhibitor, partial curve]",
COc1ccc(Br)cc1CNCCc1ccc2c(c1)OCO2,"inconclusive: 39.8 µM [inhibitor, partial curve, poor fit]",
CCn1c(O)c(/C=N/NC(=O)c2ccncc2)c(=O)[nH]c1=S,"inconclusive: 25.1 µM [inhibitor, single point]",
CC[C@@]1(O)C(=O)OCc2c1cc1n(c2=O)Cc2cc3c(NC(=O)CN)cccc3nc2-1,"inconclusive: 22.4 µM [inhibitor, partial curve]",
CC/C(=N\NC(=O)c1ccccc1)c1c(O)n(C2CCCCC2)c(=O)[nH]c1=O,,inactive: 5.84%
COC(=O)C1=C(C(=O)OC)C2OC1c1cc3ccccc3cc12,,inactive: 10.4%
O=C1NC(=O)N(c2ccccc2)C(=O)/C1=C/C=C/c1ccco1,"inconclusive: 8.91 µM [inhibitor, full curve, poor fit]",
Oc1c(Cl)cc(Cl)cc1CN1CCN(Cc2ccccc2)CC1,active: 31.6 µM,
COC(=O)C1=C(c2ccc(C(C)=O)cc2)C[C@@H]2CC[C@H]1N2C(=O)N1CCC(O)(c2ccc(Cl)cc2)CC1,"inconclusive: 39.8 µM [inhibitor, single point]",

Compound,Potency,"activity, negative = inhibition"
Nc1c(C(=O)OCc2ccccc2)c2nc3ccccc3nc2n1Cc1cccs1,"inconclusive: 14.1 µM [inhibitor, single point]",
COC(=O)C(O)(c1ccc(NC(=S)NC(=O)c2ccccc2)cc1)C(F)(F)F (stereo not drawn),"inconclusive: 20 µM [inhibitor, partial curve, poor fit]",
CCCCn1c(=O)c(C(=O)Nc2ccccc2S(N)(=O)=O)c(O)c2ccccc21,"inconclusive: 17.8 µM [inhibitor, full curve]",
CN(C)c1ccc(C=C2C(=O)NC(=O)NC2=O)cc1,"inconclusive: 28.2 µM [inhibitor, partial curve, poor fit]",
Cc1cc(/C=C2\C(=O)NC(=O)N(c3ccc(Br)cc3)C2=O)c(C)n1-c1cc(C(=O)O)cc(C(=O)O)c1,"inconclusive: 7.94 µM [inhibitor, full curve, poor fit]",
COC(=O)C1=Nc2ccccc2/C1=C\c1c(O)n(C)c(=O)n(C)c1=O,"inconclusive: 28.2 µM [inhibitor, single point]",
CCCCc1ccc2[nH]cc(CCN)c2c1,"inconclusive: 89.1 µM [inhibitor, single point]",
O=C(Oc1ccc([N+](=O)[O-])cc1)N1CCN(/[N+]([O-])=N/Oc2ccc([N+](=O)[O-])cc2[N+](=O)[O-])CC1,"inconclusive: 15.8 µM [inhibitor, partial curve, poor fit]",
COc1cc(/C=C2\C(=O)NC(=O)N(c3ccccc3)C2=O)c([N+](=O)[O-])cc1OC,,inactive: 136%
COc1nc(NC(C)C)nc(N(C#N)CN2C(=O)c3ccccc3S2(=O)=O)n1,"inconclusive: 31.6 µM [inhibitor, partial curve, poor fit]",
Cc1cc(C)c(N=Cc2c(O)[nH]c(=O)[nH]c2=O)c(C)c1,,inactive: 41.9%
ClC1=C(Cl)C(Cl)=C(Cl)C1=C/C=C/c1ccccc1,active: 44.7 µM,
COc1cc([C@@H]2c3cc4c(c(O)c3C[C@H]3COC(=O)[C@@H]32)OCO4)cc(OC)c1OC,,inactive: 22.1%
NC(=O)C1CCN(/C=C2\C(=O)NC(=O)N(Cc3ccco3)C2=O)CC1,active: 20 µM,
Cn1c(O)c(/C=C2\N=c3ccccc3=C2CCNC(=S)NC2CC2)c(=O)n(C)c1=O,"inconclusive: 25.1 µM [inhibitor, single point]",
CC[n+]1c(/C=C/C=C/c2ccc(N(C)C)cc2)sc2ccccc21,,inactive: 76.2%
O=C(Cn1cnc2ccccc2c1=O)NCc1cccs1,,inactive: 78.5%
CCCN1CCc2cccc3c2[C@H]1Cc1ccc(O)c(O)c1-3,"inconclusive: 14.1 µM [inhibitor, full curve, poor fit]",
CNCC(O)c1ccc(OC(=O)C(C)(C)C)c(OC(=O)C(C)(C)C)c1 (stereo not drawn),"inconclusive: 89.1 µM [inhibitor, single point]",
CC(=O)N(C1=NCCCS1)c1ccc(Cl)cc1,"inconclusive: 35.5 µM [inhibitor, single point]",

Compound,Potency,"activity, negative = inhibition"
COCCN(CCOC)C(=O)CCn1c(=O)oc2ccccc21,"inconclusive: 79.4 µM [inhibitor, partial curve]",
COc1ccccc1CNCCc1ccc(F)cc1,"inconclusive: 25.1 µM [inhibitor, full curve, poor fit]",
O=C1NC(=O)C(=Cc2ccc3ccccc3c2)C(=O)N1,"inconclusive: 22.4 µM [inhibitor, partial curve]",
COc1ccc(/C=C2\C(=O)NC(=O)N(Cc3ccccc3)C2=O)c(OC)c1OC,"inconclusive: 10 µM [inhibitor, partial curve, poor fit]",
Cc1c(N=Cc2c(O)n(Cc3ccco3)c(=O)[nH]c2=O)c(=O)n(-c2ccccc2)n1C,"inconclusive: 15.8 µM [inhibitor, full curve, poor fit]",
O=C1/C(=C/c2ccccc2)C[C@@]2(O)[C@H]3Cc4ccc(O)c5c4[C@@]2(CCN3CC2CC2)C1O5 (stereo partly drawn),"inconclusive: 20 µM [inhibitor, single point]",
CCN(CC)c1ccc(N=Cc2c(O)n(-c3cc(OC)ccc3OC)c(=O)[nH]c2=O)cc1,"inconclusive: 14.1 µM [inhibitor, partial curve, poor fit]",
COc1ccc(-n2c(/C=C/c3ccc4c(c3)OCO4)nc3ccccc3c2=O)cc1,"inconclusive: 3.98 µM [inhibitor, full curve, poor fit]",
O=C(O)C1Cc2ccccc2N2CCCC12 (stereo not drawn),"inconclusive: 25.1 µM [inhibitor, full curve, poor fit]",
COc1cccc(N2C(=O)NC(=O)/C(=C/c3ccc([N+](=O)[O-])s3)C2=O)c1,"inconclusive: 8.91 µM [inhibitor, full curve, poor fit]",
CCOC(=O)CC1=C(C(=O)OCC)C2(C(=O)Nc3ccccc32)C(C#N)=C(N)O1 (stereo not drawn),"inconclusive: 39.8 µM [inhibitor, partial curve, poor fit]",
CCOc1ccc(-n2c(O)c(/C=C3\C=Nc4ccccc43)c(=O)[nH]c2=O)cc1,"inconclusive: 12.6 µM [inhibitor, partial curve, poor fit]",
COc1ccccc1N1CCN(Cc2ccc(Br)s2)CC1,"inconclusive: 50.1 µM [inhibitor, partial curve, poor fit]",
CC/C(=N\NC(=O)c1ccccc1O)c1c(O)n(Cc2ccccc2)c(=O)[nH]c1=O,"inconclusive: 25.1 µM [inhibitor, partial curve]",
COc1ccc2c(c[n+](C)c3c4cc5c(cc4ccc23)OCO5)c1OC,"inconclusive: 5.62 µM [inhibitor, partial curve, poor fit]",
CNc1ccc2oc(C[C@H]3O[C@@]4(CC[C@H]3C)O[C@H]([C@H](C)C(=O)c3ccc[nH]3)[C@H](C)C[C@H]4C)nc2c1C(=O)O,"inconclusive: 50.1 µM [inhibitor, partial curve, poor fit]",
CCOc1ccc(C(=O)N2CCC(c3noc(-c4ccc(S(=O)(=O)N5CCCC5)cc4)n3)CC2)cc1,,inactive: 29.4%
Cc1c(Cc2ccccc2)c(=O)oc2cc(OCc3ccc(C(=O)O)cc3)ccc12,"inconclusive: 79.4 µM [inhibitor, partial curve, poor fit]",

# Arranged by number of heavy atoms (low to high): some entries from above.
Compound,Potency,"activity, negative = inhibition"
COc1ccccc1CNCCc1ccc(F)cc1,"inconclusive: 25.1 µM [inhibitor, full curve, poor fit]",
Cc1c(N=Cc2c(O)n(Cc3ccco3)c(=O)[nH]c2=O)c(=O)n(-c2ccccc2)n1C,"inconclusive: 15.8 µM [inhibitor, full curve, poor fit]",
CCOc1ccc(C(=O)N2CCC(c3noc(-c4ccc(S(=O)(=O)N5CCCC5)cc4)n3)CC2)cc1,,inactive: 29.4%
